Results: US20150307573A1, “CYLINDRINS AS ETIOLOGIC AGENTS OF AMYLOID DISEASES” (The Regents of the University of California, priority 2012, published 2015)
Results are given in words; binding and its absence hold for the method and conditions named. Some results given as binding are weak or reduced against the parent protein; the word gives no strength.

Target: Abeta(30-42)-Tandem3-GG
Experiment: SDS-PAGE and SEC; self-association of identical chains

binding: binds
Binder: GAIIGLMVGGVVIAGPAIIGLMVGGVVIAGPAIIGLMVGGVVIA [Abeta(30-42)-Tandem3-GG]
